Results from one PubChem assay

Source: PubChem BioAssay AID1224904 (Broad Institute, 2016).

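Selective DUX4 reporter inhibition in doxycycline-induced 293T-iDUX4 cells, scored as Gaussia percent activity minus Italica percent activity, after a 24-hour treatment. The test concentration is not given here. Percent difference between the Gaussia and Italica channels; more negative values mean more selective suppression of the DUX4 reporter, and higher values mean less activity.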

Values are in %. The controls that fix the scale are not given here. Common to all entries: measured here: selective DUX4 reporter inhibition. Part of the compounds only, not a random draw; the main read-out is not listed here.

| Compound | Gaussia minus Italica difference (%) |
|---|---|
| `COC(=O)[C@H]1[C@H](CO)[C@H]2Cn3c(ccc(/C=C/c4ccccc4)c3=O)[C@@H]1N2Cc1ccccc1F` | -11.98 |
| `C[C@H](NC(=O)[C@H]1[C@H](CO)[C@H]2Cn3c(cccc3=O)[C@H]2N1CC1CCCCC1)c1ccccc1` | 1.883 |
| `C[C@H]1CN([C@@H](C)CO)C(=O)CCCn2nncc2CO[C@H]1CN(C)Cc1cccc(C(F)(F)F)c1` | -7.837 |
| `O=C(C[C@H]1CC[C@@H]2[C@H](COC[C@H](O)CN2Cc2cccc(C(F)(F)F)c2)O1)NCCc1ccccc1` | -8.339 |
| `COc1ccc(S(=O)(=O)N2CCCCN3[C@H](CO)[C@H](c4ccc(C5=CCCC5)cc4)[C@H]3C2)cc1` | -9.757 |
| `O=C(c1cccnc1)N1CC[C@@H]2[C@H]1c1cc(-c3cccc(F)c3)ccc1N[C@@H]2CO` | -7.152 |
| `COc1ccc2c3c(n(C)c2c1)[C@@H](CO)N(C(=O)Nc1ccc(F)cc1)CC31CN(Cc2ccccc2F)C1` | -0.1922 |
| `COc1ccccc1CNC(=O)C[C@@H]1CC[C@H]2[C@@H](COC[C@H](O)CN2C(=O)Nc2ccc(C(F)(F)F)cc2)O1` | 3.632 |
| `O=C(c1ccc(F)cc1)N1CC[C@@H]2[C@@H](CO)Nc3ccc(C#Cc4ccccc4F)cc3[C@@H]21` | -24.22 |
| `O=C(C[C@H]1CC[C@@H]2[C@H](COC[C@H](O)CN2Cc2ccc(Cl)cc2)O1)NCc1cccc(F)c1` | -9.459 |
| `C[C@H](CO)N1C[C@H](C)[C@H](CN(C)S(=O)(=O)c2ccc(F)cc2)OCc2ccccc2-c2c(n(C)c3ccccc23)C1=O` | 3.704 |
| `COc1ccccc1C#Cc1ccc2c(c1)[C@@H]1[C@@H](CCN1C(C)=O)[C@@H](CO)N2C` | -13.82 |
| `O=C(C[C@@H]1CC[C@@H]2[C@H](COC[C@H](O)CN2CCc2ccccc2)O1)N1CCC(Cc2ccccc2)CC1` | -18.44 |
| `O=C(C[C@H]1CC[C@H]2[C@@H](COC[C@@H](O)CN2S(=O)(=O)c2ccc(F)cc2)O1)NCc1ccc(Cl)c(Cl)c1` | -13.98 |
| `C[C@H]1CN([C@@H](C)CO)C(=O)c2c(c3ccccc3n2C)-c2ccccc2CO[C@@H]1CN(C)S(=O)(=O)c1ccccc1F` | -9.324 |
| `COc1ccc2c3c([nH]c2c1)[C@@H](CO)N(C(=O)c1ccc(F)cc1)CC31CCN(C(=O)CC2CC2)CC1` | -24.68 |
| `O=C(Nc1ccccc1)N1CC(=O)N2[C@@H](CO)[C@H](c3ccc(C#CC4CCCCC4)cc3)[C@@H]2C1` | -23.78 |
| `O=C(C[C@H]1CC[C@H]2[C@@H](COC[C@H](O)CN2Cc2ccc(Oc3ccccc3)cc2)O1)N1CCOCC1` | -2.245 |
| `COc1ccc2c3c([nH]c2c1)[C@H](CO)N(Cc1ccccc1)CC31CN(C(=O)Nc2cccc(F)c2)C1` | -20.31 |
| `CN1c2ccc(C#Cc3ccc(F)cc3)cc2[C@@H]2[C@@H](CCN2S(=O)(=O)c2ccccc2F)[C@H]1CO` | -12.01 |
| `COc1ccc2c3c([nH]c2c1)[C@@H](CO)N(Cc1cccc(F)c1)CC31CCN(CC2CC2)CC1` | 21.73 |
| `C[C@H](CO)N1C[C@H](C)[C@@H](CN(C)Cc2ccccc2C(F)(F)F)OCc2cnnn2CCCC1=O` | -7.052 |
| `C[C@H](CO)N1C[C@H](C)[C@H](CN(C)S(=O)(=O)c2ccc(Cl)cc2)OCc2ccccc2-c2c(n(C)c3ccccc23)C1=O` | 5.421 |
| `N#C[C@@H]1[C@H](c2ccccc2C2=CCCCC2)[C@H](CO)N1S(=O)(=O)c1ccccc1` | -4.02 |
| `C[C@@H]1CN([C@H](C)CO)C(=O)CCCn2cc(nn2)CO[C@@H]1CN(C)Cc1ccc(C(=O)Nc2ccccc2N)cc1` | -22.6 |
| `CCS(=O)(=O)Nc1ccc2c(c1)C(=O)N(C)C[C@@H](OC)[C@H](C)CN(CC1CCCCC1)[C@@H](C)CO2` | -21.78 |
| `Cc1cccc(S(=O)(=O)N2CC[C@@H]3[C@H](CO)Nc4ccc(C#Cc5cccnc5)cc4[C@@H]32)c1` | -1.039 |
| `O=C(c1ccc2c(c1)OCO2)N1CC(=O)N2[C@@H](CO)[C@@H](c3ccc(C#CCC4CCCC4)cc3)[C@@H]2C1` | -14.24 |
| `CO[C@@H]1CN(C)C(=O)c2ccc(NC(=O)NC(C)C)cc2OC[C@@H](C)N(Cc2ccc(-c3ccccn3)cc2)C[C@@H]1C` | -20.16 |
| `CCS(=O)(=O)N1CC(=O)N2[C@H](C1)[C@@H](c1ccc(C#Cc3cccc(F)c3)cc1)[C@@H]2CO` | 2.726 |
| `O=C(C[C@H]1CC[C@@H]2[C@H](COC[C@H](O)CN2Cc2cc(F)ccc2F)O1)NCc1ccc(Cl)cc1` | -0.9447 |
| `CC(C)NC(=O)NCC[C@@H]1CC[C@@H](NS(=O)(=O)c2ccc(Oc3ccccc3)cc2)[C@@H](CO)O1` | -8.099 |
| `COc1ccc(-c2ccc3c(c2)[C@@H]2[C@@H](CCN2S(=O)(=O)c2ccccc2C)[C@@H](CO)N3)cc1` | 26.95 |
| `COCC(=O)N1CC2(C1)[C@H](c1ccc(-c3cccc(C)c3)cc1)[C@H](CO)N2C(=O)C1CC1` | -3.677 |
| `O=C(C1CCOCC1)N1CC(=O)N2[C@H](CO)[C@@H](c3ccc(C#Cc4cccc(F)c4)cc3)[C@@H]2C1` | -4.32 |
| `O=C(C[C@@H]1CC[C@@H](NC(=O)c2ccc3c(c2)OCO3)[C@@H](CO)O1)NCc1ccc(Oc2ccccc2)cc1` | -11.86 |
| `CN1CCCCN2[C@H](CO)[C@@H](c3ccc(C#Cc4ccccc4F)cc3)[C@@H]2C1` | -4.132 |
| `CC(C)NC(=O)N1CCCCN2[C@H](CO)[C@@H](c3ccc(C#Cc4ccccc4F)cc3)[C@H]2C1` | 0.2747 |
| `COc1cccc(S(=O)(=O)N2CC[C@@H]3[C@H](CO)Nc4ccc(C5=CCCCC5)cc4[C@@H]32)c1` | 29.33 |
| `Cc1ccc(-c2ccccc2[C@@H]2[C@@H](C#N)N(C(=O)Cc3cccnc3)[C@@H]2CO)cc1` | -5.088 |
| `COc1cccc(-c2ccc(C3[C@@H]4CN(C(=O)C5CCCCC5)C[C@H]3N4)cc2)c1` (stereo partly drawn) | -14.66 |
| `O=C(C[C@H]1CC[C@@H]2[C@H](COC[C@H](O)CN2Cc2cc(F)ccc2F)O1)N[C@@H]1CCN(Cc2ccccc2)C1` | -11.06 |
| `COc1ccc2c3c([nH]c2c1)[C@@H](CO)N(Cc1ccccc1F)CC31CN(CC2CC2)C1` | 11.22 |
| `COc1cccc(C#Cc2ccc([C@H]3[C@H](CO)N4C(=O)CN(S(=O)(=O)c5ccccc5C)C[C@@H]34)cc2)c1` | -7.336 |
| `COc1ccc2c3c([nH]c2c1)[C@H](CO)N(C(=O)Nc1ccc(F)cc1)CC31CCN(S(=O)(=O)c2ccccc2)CC1` | -5.591 |
| `COc1cccc(-c2ccccc2[C@H]2[C@@H](CO)N(C(=O)Cc3ccccc3)[C@H]2C#N)c1` | -6.105 |
| `O=C(c1cccnc1)N1CCCCN2[C@H](CO)[C@H](c3ccc(C#Cc4cccnc4)cc3)[C@H]2C1` | -17.25 |
| `O=S(=O)(c1cccs1)N1CCCCN2[C@H](CO)[C@H](c3ccc(-c4ccccc4)cc3)[C@H]2C1` | -8.997 |
| `COc1ccccc1C#Cc1ccc([C@@H]2[C@H]3CN(C(=O)C4CCC4)CCCCN3[C@H]2CO)cc1` | -20.76 |
| `O=C(C1CCCCC1)N1CC2(C1)[C@H](c1ccccc1)[C@H](CO)N2CC1CCCC1` | -6.464 |
| `O=C(Cc1ccccc1)N1CC2(C1)[C@H](c1ccccc1)[C@@H](CO)N2S(=O)(=O)Cc1ccccc1` | -3.322 |
| `C[C@@H](NC(=O)C[C@@H]1C[C@H]2c3cc(NC(=O)Nc4ccccc4F)ccc3O[C@H]2[C@@H](CO)O1)c1ccccc1` | -14.88 |
| `Cc1ccc(S(=O)(=O)N2CC[C@@H]3[C@H]2c2cc(-c4cccc(C#N)c4)ccc2N(C)[C@H]3CO)cc1` | 3.668 |
| `CCC(=O)N1C[C@@H](C)[C@@H](OC)CN(C)C(=O)c2cc(NC(=O)Nc3ccc(Cl)cc3)ccc2OC[C@@H]1C` | -8.871 |
| `C[C@H]1CN([C@@H](C)CO)C(=O)c2ccccc2-c2ccccc2CO[C@H]1CN(C)S(=O)(=O)c1ccsc1` | -9.467 |
| `Cc1ccc(S(=O)(=O)N2C[C@@H](O)COC[C@H]3O[C@H](CC(=O)NCc4ccc5c(c4)OCO5)CC[C@@H]32)cc1` | -13.66 |
| `O=C(CN1CCOCC1)N1CCCCN2[C@H](CO)[C@H](c3ccc(C#Cc4ccccc4F)cc3)[C@@H]2C1` | -10.53 |
| `C[C@@H]1CN([C@H](C)CO)C(=O)c2ccccc2-c2ccccc2CO[C@@H]1CN(C)C(=O)c1cc(Cl)cc(Cl)c1` | 8.722 |
| `O=C(C[C@@H]1C[C@H]2c3cc(NS(=O)(=O)c4ccc(F)cc4)ccc3O[C@H]2[C@@H](CO)O1)NCc1ccc(Oc2ccccc2)cc1` | 16.63 |
| `CCCNC(=O)[C@@H]1[C@@H](CO)[C@@H]2Cn3c(ccc(/C=C/c4ccccc4)c3=O)[C@@H]2N1CC1CC1` | 2.546 |
| `O=C(CC1CC1)N1CC(=O)N2[C@H](CO)[C@@H](c3ccc(-c4ccccc4)cc3)[C@@H]2C1` | -9.381 |
| `COc1cc(CN2CC3(CN(C)C3)c3c([nH]c4cc(OC)ccc34)[C@H]2CO)cc(OC)c1` | -12.13 |

Once more, the final 4:

| Compound | Gaussia minus Italica difference (%) |
|---|---|
| `O=C(C[C@@H]1C[C@H]2c3cc(NS(=O)(=O)c4ccc(F)cc4)ccc3O[C@H]2[C@@H](CO)O1)NCc1ccc(Oc2ccccc2)cc1` | 16.63 |
| `CCCNC(=O)[C@@H]1[C@@H](CO)[C@@H]2Cn3c(ccc(/C=C/c4ccccc4)c3=O)[C@@H]2N1CC1CC1` | 2.546 |
| `O=C(CC1CC1)N1CC(=O)N2[C@H](CO)[C@@H](c3ccc(-c4ccccc4)cc3)[C@@H]2C1` | -9.381 |
| `COc1cc(CN2CC3(CN(C)C3)c3c([nH]c4cc(OC)ccc34)[C@H]2CO)cc(OC)c1` | -12.13 |